Earlier results as cited in patent publication US20070213312A1, “Hif-1 Inhibitors and Methods of Use Thereof” (priority 2003, published 2007).
At least one structure is not confirmed: it was looked up by name or label, or the drawing left a doubt.

Tested on: HIF-1α
Details: renal cell carcinoma cell lines lacking VHL; cited from earlier work

Compound: COC1=C2C[C@@H](C)C[C@H](OC)[C@H](O)[C@@H](C)/C=C(\C)[C@H](OC(N)=O)[C@@H](OC)/C=C\C=C(/C)C(=O)NC(=CC1=O)C2=O [geldanamycin]
- Incubation time after which loss of HIF-1α typically occurred: ~8 h
